Results as given in publication PMC7382281, “Assembly and regulation of the chlorhexidine-specific efflux pump AceI” (Proceedings of the National Academy of Sciences of the …, 2020).
Results are given in words; binding and its absence hold for the method and conditions named. Sequences can lack the tags named with a protein.

By UniProt entry, the sequences of proteins in these tests, tags left out. Where a name states a change or a piece, a line headed by the entry shows the natural chain unless it says otherwise.
UniProt P0A7Z4: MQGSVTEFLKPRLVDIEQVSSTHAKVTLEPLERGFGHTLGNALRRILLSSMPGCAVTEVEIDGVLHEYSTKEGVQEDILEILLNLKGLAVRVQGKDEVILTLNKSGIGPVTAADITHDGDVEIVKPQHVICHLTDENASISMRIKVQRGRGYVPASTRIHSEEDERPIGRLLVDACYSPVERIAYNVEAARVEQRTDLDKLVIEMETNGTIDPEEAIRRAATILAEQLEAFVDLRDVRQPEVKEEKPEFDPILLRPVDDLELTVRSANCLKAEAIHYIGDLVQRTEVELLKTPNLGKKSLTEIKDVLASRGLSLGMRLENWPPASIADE

Target: E. coli RNA polymerase containing the σ^70 factor (α2ββ′ωσ^70) (E. coli) (UniProt P0A7Z4)
Test: native MS; both purified

B1: AceR^FL: full-length AceR (Acinetobacter chlorhexidine efflux protein regulator) with a Bril fusion at the N terminus (protein, UniProt P0DUU5 1-297)
chain: MNINQEQLLMFQAVMETGSFSAAARKLGKVPSAVSMSIANLEIDLNLTLFERKGREPTPTAEARVLYEKTAQLLIEMNQWKQHAHALSTGLEPNLTIVVVSELLHTNWTDYVCLLESRFPDLQINIVSAPQEDALQMLLDGSAQLALMFEREHLDNREQFVELKREALIPVISKTHPLASQEHVSYEQILGTRQIVVASRDETLKPELLFSKHYWRTDNHHSACLMILRNLGWGVLPQEMFKENPELNNKLKALDVFDFTPRFEYYVDLVWSRESELGAAARFLIDYIRNKRMQPAP
**Q.** How did the binding turn out when B1 was run?
**A.** Its binding is “no binding”.
